PubChem BioAssay AID1224826 – NIAID – 2016
Here is an unselected part of about 17,000 deposited reagents. In the full data, about 1,110 (6.6%) were called active. 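Active means lowered or raised reporter signal; replicate intensities are raw and not normalised per plate.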 A number with no mark means an inactive call. Further read-outs or replicates are left out here.

Screen: 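Genes that change LPS-induced Tnf promoter activity in mouse macrophages when knocked down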 (primary screen)
System: RAW264.7 G9 macrophages from mouse bearing reporters for p65 (GFP) and the Tnf promoter (mCherry)
Knock-down reagent: siRNA pool against mouse genes, 100 nM
Duration: 16 h of LPS stimulation, after 2 days of siRNA transfection
Conditions: bacterial lipopolysaccharide (Salmonella minnesota R595), 10 ng/ml
Measured: 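Nuclear mCherry signal of the Tnf promoter reporter measured by imaging after background removal, scaled to each plate median and turned into robust z-scores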
Direction: Tnf reporter robust z-score: higher = stronger Tnf promoter reporter signal after LPS
Active means: 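Called active when robust z-score is at most -1.3, matching the median of the Tlr4 knock-down control, or over 3; control wells and wells with under 50 cells never active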
Meaning of the calls: active = Tnf reporter clearly lowered or raised; inactive = no clear change in Tnf reporter

Mterf2 → Tnf reporter robust z-score = -0.19; fewer than 50 cells in well = enough cells in well
Impa1 → Tnf reporter robust z-score = 1.34; fewer than 50 cells in well = enough cells in well
Rgs4 → fewer than 50 cells in well = fewer than 50 cells per well; well left out of calls
Amhr2 → Tnf reporter robust z-score = 1.3; fewer than 50 cells in well = enough cells in well
Pus10 → Tnf reporter robust z-score = -1.03; fewer than 50 cells in well = enough cells in well
Mmrn2 → Tnf reporter robust z-score = 1.15; fewer than 50 cells in well = enough cells in well
Cyp19a1 → Tnf reporter robust z-score = 0.38; fewer than 50 cells in well = enough cells in well
Polr2g → Tnf reporter robust z-score = -2.11 (active); fewer than 50 cells in well = enough cells in well
Ovol1 → fewer than 50 cells in well = fewer than 50 cells per well; well left out of calls

Reformatted: 2 of the entries above.
| Gene | Tnf reporter robust z-score | fewer than 50 cells in well |
| --- | --- | --- |
| Mmrn2 | 1.15 | enough cells in well |
| Cyp19a1 | 0.38 | enough cells in well |

Additional entries:
Ntrk1 → Tnf reporter robust z-score = 0.82; fewer than 50 cells in well = enough cells in well
Pdxdc1 → Tnf reporter robust z-score = -1.26; fewer than 50 cells in well = enough cells in well
Klhl1 → Tnf reporter robust z-score = -1.04; fewer than 50 cells in well = enough cells in well
Zfp300 → Tnf reporter robust z-score = -1.21; fewer than 50 cells in well = enough cells in well
Adam21 → Tnf reporter robust z-score = 0.31; fewer than 50 cells in well = enough cells in well
